Results: publication PMC6307885
No constants are given. Whether binding was seen depends on the method and setting. Some results given as binding are weak or reduced against the parent protein; the word gives no strength.

Sequences of proteins named here, by UniProt entry; tags and fusion partners are left off.
UniProt Q9FYK5: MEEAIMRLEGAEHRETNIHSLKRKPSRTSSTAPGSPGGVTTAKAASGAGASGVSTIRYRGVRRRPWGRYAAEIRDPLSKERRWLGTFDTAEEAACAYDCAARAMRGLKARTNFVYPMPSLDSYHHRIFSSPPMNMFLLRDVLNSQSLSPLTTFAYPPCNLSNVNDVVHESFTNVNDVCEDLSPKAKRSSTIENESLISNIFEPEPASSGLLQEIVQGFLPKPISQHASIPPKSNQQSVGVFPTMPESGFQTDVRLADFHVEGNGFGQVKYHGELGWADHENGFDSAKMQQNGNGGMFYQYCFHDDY
UniProt Q9SAD4: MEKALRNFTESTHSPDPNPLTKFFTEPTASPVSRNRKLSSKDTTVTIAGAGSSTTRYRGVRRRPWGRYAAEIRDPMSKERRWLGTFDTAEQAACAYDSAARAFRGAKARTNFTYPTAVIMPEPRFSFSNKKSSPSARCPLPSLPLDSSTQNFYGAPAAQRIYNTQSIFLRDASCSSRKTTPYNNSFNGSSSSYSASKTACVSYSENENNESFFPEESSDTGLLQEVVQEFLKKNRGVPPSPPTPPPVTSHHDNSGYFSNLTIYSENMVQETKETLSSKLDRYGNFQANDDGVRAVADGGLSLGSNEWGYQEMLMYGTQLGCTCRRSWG

Legend:
[1] = target: BD-REV (full-length REV fused to the binding domain of GAL4) (Arabidopsis thaliana) (UniProt Q9SE43); assay: yeast three-hybrid; yeast AH109; AD and BD fusions with conditional expression of a third (bridge) protein; growth and relative β-galactosidase activity before and after induction; 30°C
[2] = target: BD-REV (full-length REV fused to the binding domain of GAL4) (Arabidopsis thaliana) (UniProt Q9SE43); assay: two-hybrid; GAL4 AD and BD fusions in yeast; growth on SD-Leu-Trp-His-Ade plates; 100 mM 3-AT in the selection medium
[3] = target: T1, REV protein, purified, used in EMSA (Arabidopsis thaliana) (UniProt Q9SE43); assay: native gel or EMSA; supershift with biotin-labeled fragment 1 of the STM promoter; 2 µg DRN and ZPR3, 1 µg REV; 25°C, 20 min; 10% native polyacrylamide gel; both purified
T1 sequence: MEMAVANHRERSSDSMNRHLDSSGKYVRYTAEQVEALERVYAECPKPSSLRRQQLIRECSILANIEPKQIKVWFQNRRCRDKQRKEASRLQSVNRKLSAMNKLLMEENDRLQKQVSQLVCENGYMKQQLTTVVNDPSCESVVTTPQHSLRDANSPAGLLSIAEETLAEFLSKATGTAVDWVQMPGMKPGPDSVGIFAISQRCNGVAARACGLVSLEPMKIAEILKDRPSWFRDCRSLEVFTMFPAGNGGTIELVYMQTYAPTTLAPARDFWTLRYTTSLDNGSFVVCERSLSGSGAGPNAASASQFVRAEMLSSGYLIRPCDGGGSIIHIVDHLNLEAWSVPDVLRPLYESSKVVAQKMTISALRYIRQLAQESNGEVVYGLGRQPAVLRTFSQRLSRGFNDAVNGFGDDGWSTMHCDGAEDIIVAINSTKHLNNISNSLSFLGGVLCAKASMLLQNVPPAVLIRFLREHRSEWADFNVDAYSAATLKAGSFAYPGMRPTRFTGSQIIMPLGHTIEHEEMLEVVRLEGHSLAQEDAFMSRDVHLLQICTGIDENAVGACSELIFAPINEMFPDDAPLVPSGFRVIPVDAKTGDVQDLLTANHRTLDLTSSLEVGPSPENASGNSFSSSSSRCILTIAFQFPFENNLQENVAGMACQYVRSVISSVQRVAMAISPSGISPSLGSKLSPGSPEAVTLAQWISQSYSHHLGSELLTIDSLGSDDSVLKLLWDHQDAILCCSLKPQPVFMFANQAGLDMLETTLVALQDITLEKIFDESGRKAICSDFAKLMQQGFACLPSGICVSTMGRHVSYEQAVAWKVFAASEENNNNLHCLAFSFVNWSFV

binding [1] | binding [2] | binding [3] | Substance
binds |  |  | DRNL expressed as the third protein in the yeast three-hybrid assay (pB-REV-DRNL) (from UniProt Q9FYK5 1-306)
binds | binds |  | AD-DRN (full-length DRN fused to the activation domain of GAL4) (from UniProt Q9SAD4 1-328)
binds | binds |  | AD-DRNL (full-length DRNL fused to the activation domain of GAL4) (from UniProt Q9FYK5 1-306)
 |  | binds | DRN protein, purified, used in EMSA (from UniProt Q9SAD4 1-328)
binds |  |  | DRN expressed as the third protein in the yeast three-hybrid assay (pB-REV-DRN) (from UniProt Q9SAD4 1-328)
